# Laboratory results from US8614182B2 (Jiangsu Hansoh Pharmaceuticals Co., Ltd., priority 2009, dated 2013).
# Chains of the proteins cited; added tags and fusions are not shown. Residues count along the entry.
# UniProt P43220, 24-463, species assumed: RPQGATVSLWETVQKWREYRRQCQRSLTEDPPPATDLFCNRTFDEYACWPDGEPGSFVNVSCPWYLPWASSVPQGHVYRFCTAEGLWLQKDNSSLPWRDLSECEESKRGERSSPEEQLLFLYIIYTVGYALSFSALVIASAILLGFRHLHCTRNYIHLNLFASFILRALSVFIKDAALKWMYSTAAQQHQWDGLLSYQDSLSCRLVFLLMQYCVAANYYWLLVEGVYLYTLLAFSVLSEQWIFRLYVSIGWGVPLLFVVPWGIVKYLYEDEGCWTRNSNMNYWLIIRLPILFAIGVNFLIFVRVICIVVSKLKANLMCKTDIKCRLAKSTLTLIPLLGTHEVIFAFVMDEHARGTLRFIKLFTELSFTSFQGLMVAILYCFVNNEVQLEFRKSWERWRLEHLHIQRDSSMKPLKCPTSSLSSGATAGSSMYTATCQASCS
# Some results were stated once for a whole list of compounds, not compound by compound. Non-standard residues stand in square brackets, D forms with d. Residues, ends and D or L forms follow the SMILES beside them. *: point of attachment. εLys(Nα-Palmitoyl) = CCCCCCCCCCCCCCCC(=O)N[C@@H](CCCCN*)C(=O)O; Aib = CC(C)(N)C(=O)O
# Experiments:
# [1] = target: T1, Glucagon-like peptide-1 receptor (GLP1R) (Homo sapiens, UniProt P43220); test: Agonist activity on GLP1R, cAMP response element luciferase reporter gene in HEK293 cells; assay type: cell-based; conditions: in words
# T1 construct: expressed in transfected cells; host or cells: HEK293
# Description: GLP1R is a receptor coupled with Gs protein, of which the binding with the agonists will result in an increase of intracellular cAMP concentration. In the present experiment, GLP1R and the luciferase reporter gene plasmid regulated by cAMP response elements are co-transfected into HEK293 cells. When the compound binds to the receptor and activates the receptors, the expression of the luciferase will increase. The activation status of the compound to GLP1R can be learned by testing the activity of the luciferase.
# 2. The compounds or positive drugs having a certain concentration gradient were added (3 wells per concentration) and incubated at 37° C. for 5 hours. The negative control was solvent DMSO.
# 3. 50 μl culture medium was taken from each well, and 50 μl of the luciferase substrate were added and vortexed for 10 minutes.
# 4. 80 μl reaction solution was taken and transferred to a white 96 well plate, then detected on the Invision microplate reader (enzyme-labelling measuring instrument).
# [2] = test system: db/db mice with type 2 diabetes; test: Random blood glucose of db/db mice after single subcutaneous injection; assay type: in vivo; conditions: for duration of the effect on decreasing random blood glucose: single s.c.
# Experimental: db/db mice with type 2 diabetes were divided into six groups based on a random blood glucose and body weight (8 per group). […] The random blood glucose of the mice is determined at differete time after administration.
# Preparation method: 1 bottle of the compound (2 mg/bottle) was dissolved with double-distilled water to prepare a colorless and transparent solution of which the concentration is 2 mg/mL. […] “ACCU-CHEK® Advantage” blood glucose meter form Roche was used to determine the blood glucose.
# Route and volume of administration: Single subcutaneous injection dose, dose volume was 5 mL/kg. […]
# The random blood glucoses of db/db mice were measured.
# Each group has 8 mice, half male and half female. The animals of each group were administered with the test compounds or solvent control respectively through single subcutaneous injection.
# [3] = dose of 10 g/kg (so in the source)
SMILES,agonist activity compared with positive compound liraglutide [1],"decrease rate of random blood glucose, up to ([2]; 10 μg/kg single s.c., after 2 hours (as printed in text))",duration of the effect on decreasing random blood glucose ([2]; dose of 3 g/kg (so in the source)),"duration of the effect on decreasing random blood glucose [2, 3]"
CCCCCCCCCCCCCCCC(=O)N[C@@H](CCCCNC(=O)[C@H](CO)NC(=O)[C@@H]1CCCN1C(=O)[C@@H]1CCCN1C(=O)[C@@H]1CCCN1C(=O)[C@H](C)NC(=O)CNC(=O)[C@H](CO)NC(=O)[C@H](CO)NC(=O)[C@@H]1CCCN1C(=O)CNC(=O)CNC(=O)[C@H](CCCNC(=N)N)NC(=O)[C@@H](NC(=O)[C@H](CC(C)C)NC(=O)[C@H](Cc1c[nH]c2ccccc12)NC(=O)[C@H](C)NC(=O)[C@@H](NC(=O)[C@H](Cc1ccccc1)NC(=O)[C@H](CCC(=O)O)NC(=O)[C@H](CCCCN)NC(=O)[C@H](C)NC(=O)[C@H](C)NC(=O)[C@H](CCC(=O)O)NC(=O)[C@H](CCC(=O)O)NC(=O)[C@H](CCC(=O)O)NC(=O)[C@H](CC(C)C)NC(=O)[C@H](Cc1ccc(O)cc1)NC(=O)[C@H](CO)NC(=O)[C@H](CO)NC(=O)[C@@H](NC(=O)[C@H](CC(=O)O)NC(=O)[C@H](CO)NC(=O)[C@@H](NC(=O)[C@H](Cc1ccccc1)NC(=O)[C@@H](NC(=O)CNC(=O)[C@H](CCC(=O)O)NC(=O)C(C)(C)NC(=O)[C@@H](N)Cc1c[nH]cn1)[C@@H](C)O)[C@@H](C)O)C(C)C)[C@@H](C)CC)C(C)C)C(=O)O [HS-20004] (H-H[Aib]EGTFTSDVSSYLEEEAAKEFIAWLVRGGPSSGAPPPS-{εLys(Nα-Palmitoyl)}; N-terminus and C-terminus assumed),much better agonist activity,up to 36.20%,more than 4 hours,more than 8 hours
CCCCCCCCCCCCCCCC(=O)N[C@@H](CCCCNC(=O)[C@H](CO)NC(=O)[C@@H]1CCCN1C(=O)[C@@H]1CCCN1C(=O)[C@@H]1CCCN1C(=O)[C@H](C)NC(=O)CNC(=O)[C@H](CO)NC(=O)[C@H](CO)NC(=O)[C@@H]1CCCN1C(=O)CNC(=O)CNC(=O)[C@H](CCCNC(=N)N)NC(=O)[C@@H](NC(=O)[C@H](CC(C)C)NC(=O)[C@H](Cc1c[nH]c2ccccc12)NC(=O)[C@H](C)NC(=O)[C@@H](NC(=O)[C@H](Cc1ccccc1)NC(=O)[C@H](CCC(=O)O)NC(=O)[C@H](CCCCN)NC(=O)[C@H](C)NC(=O)[C@H](C)NC(=O)[C@H](CCC(=O)O)NC(=O)[C@H](CCC(=O)O)NC(=O)[C@H](CCC(=O)O)NC(=O)[C@H](CC(C)C)NC(=O)[C@H](Cc1ccc(O)cc1)NC(=O)[C@H](CO)NC(=O)[C@H](CO)NC(=O)[C@@H](NC(=O)[C@H](CC(=O)O)NC(=O)[C@H](CO)NC(=O)[C@@H](NC(=O)[C@H](Cc1ccccc1)NC(=O)[C@@H](NC(=O)CNC(=O)[C@H](CCC(=O)O)NC(=O)[C@@H](C)NC(=O)[C@@H](N)Cc1c[nH]cn1)[C@@H](C)O)[C@@H](C)O)C(C)C)[C@@H](C)CC)C(C)C)C(=O)O [HS-20003] (H-H[dA]EGTFTSDVSSYLEEEAAKEFIAWLVRGGPSSGAPPPS-{εLys(Nα-Palmitoyl)}; N-terminus and C-terminus assumed),much better agonist activity,,,more than 8 hours
